{
  "sequences": {"note": "Chains of the proteins cited; added tags and fusions are not shown.", "UniProt Q9NQE9": "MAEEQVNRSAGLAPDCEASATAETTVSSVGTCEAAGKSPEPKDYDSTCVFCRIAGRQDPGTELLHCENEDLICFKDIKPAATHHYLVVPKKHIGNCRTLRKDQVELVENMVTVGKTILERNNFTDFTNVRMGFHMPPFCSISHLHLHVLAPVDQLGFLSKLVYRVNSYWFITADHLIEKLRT", "UniProt P10415": "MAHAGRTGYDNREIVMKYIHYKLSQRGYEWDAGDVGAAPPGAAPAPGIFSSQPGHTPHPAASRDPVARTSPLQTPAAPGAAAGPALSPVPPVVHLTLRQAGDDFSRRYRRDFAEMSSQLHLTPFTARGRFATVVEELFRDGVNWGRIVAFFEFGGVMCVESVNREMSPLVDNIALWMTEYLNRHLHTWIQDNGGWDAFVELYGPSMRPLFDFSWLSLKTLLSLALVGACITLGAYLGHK", "UniProt P51784": "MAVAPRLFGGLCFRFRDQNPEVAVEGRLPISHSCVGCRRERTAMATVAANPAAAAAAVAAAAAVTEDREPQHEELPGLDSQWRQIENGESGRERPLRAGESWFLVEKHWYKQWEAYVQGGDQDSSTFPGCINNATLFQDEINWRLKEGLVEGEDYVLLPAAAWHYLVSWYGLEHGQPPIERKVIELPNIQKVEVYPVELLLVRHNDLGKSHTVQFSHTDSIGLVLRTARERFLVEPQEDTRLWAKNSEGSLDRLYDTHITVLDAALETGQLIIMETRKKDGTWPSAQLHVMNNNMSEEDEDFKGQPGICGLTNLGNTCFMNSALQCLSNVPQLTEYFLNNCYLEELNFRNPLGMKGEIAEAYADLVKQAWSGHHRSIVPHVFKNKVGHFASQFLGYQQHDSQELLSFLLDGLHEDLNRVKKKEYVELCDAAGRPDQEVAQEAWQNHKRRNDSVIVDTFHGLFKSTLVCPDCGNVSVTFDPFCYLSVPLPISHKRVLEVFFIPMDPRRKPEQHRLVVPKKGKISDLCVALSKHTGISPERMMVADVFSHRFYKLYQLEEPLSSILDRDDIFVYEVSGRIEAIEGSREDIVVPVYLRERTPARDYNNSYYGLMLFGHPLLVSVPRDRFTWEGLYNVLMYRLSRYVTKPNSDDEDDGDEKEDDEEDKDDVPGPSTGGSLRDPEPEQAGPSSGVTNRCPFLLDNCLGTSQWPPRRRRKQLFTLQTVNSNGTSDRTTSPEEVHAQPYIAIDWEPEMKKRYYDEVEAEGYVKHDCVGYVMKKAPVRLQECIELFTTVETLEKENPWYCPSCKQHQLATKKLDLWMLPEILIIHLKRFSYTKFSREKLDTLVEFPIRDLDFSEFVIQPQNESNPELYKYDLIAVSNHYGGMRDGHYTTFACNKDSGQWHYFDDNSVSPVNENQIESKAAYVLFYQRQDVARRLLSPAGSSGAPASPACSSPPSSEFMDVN"},
  "source": "paper doi:10.1101/2022.05.17.492159",
  "molecular_target": "histidine triad nucleotide binding protein 3 (HINT3) (human (endogenous in HPAECs)) (UniProt Q9NQE9)",
  "assay": "co-IP",
  "note": "No constants are given. Whether binding was seen depends on the method and setting. Binding seen in cells or lysates may run through a third protein. Some results given as binding are weak or reduced against the parent protein; the word gives no strength.",
  "data": [
    {"substance": "B-cell lymphoma 2 (BCL2) (from UniProt P10415 1-239)", "values": [
      {"measurement": "binding", "result": "binds"}
    ]},
    {"substance": "ubiquitin-specific proteases 11 (USP11) (from UniProt P51784 1-963) (enzyme)", "values": [
      {"measurement": "binding", "result": "binds"}
    ]}
  ]
}
